We go through 1 molecule from patent publication US20220033512A1 (University of California, published 2022).

Assay [1] addresses T1, human ENPP1, full length, over-expressed on HEK cells (human) (UniProt P22413).
T1 sequence (looked up): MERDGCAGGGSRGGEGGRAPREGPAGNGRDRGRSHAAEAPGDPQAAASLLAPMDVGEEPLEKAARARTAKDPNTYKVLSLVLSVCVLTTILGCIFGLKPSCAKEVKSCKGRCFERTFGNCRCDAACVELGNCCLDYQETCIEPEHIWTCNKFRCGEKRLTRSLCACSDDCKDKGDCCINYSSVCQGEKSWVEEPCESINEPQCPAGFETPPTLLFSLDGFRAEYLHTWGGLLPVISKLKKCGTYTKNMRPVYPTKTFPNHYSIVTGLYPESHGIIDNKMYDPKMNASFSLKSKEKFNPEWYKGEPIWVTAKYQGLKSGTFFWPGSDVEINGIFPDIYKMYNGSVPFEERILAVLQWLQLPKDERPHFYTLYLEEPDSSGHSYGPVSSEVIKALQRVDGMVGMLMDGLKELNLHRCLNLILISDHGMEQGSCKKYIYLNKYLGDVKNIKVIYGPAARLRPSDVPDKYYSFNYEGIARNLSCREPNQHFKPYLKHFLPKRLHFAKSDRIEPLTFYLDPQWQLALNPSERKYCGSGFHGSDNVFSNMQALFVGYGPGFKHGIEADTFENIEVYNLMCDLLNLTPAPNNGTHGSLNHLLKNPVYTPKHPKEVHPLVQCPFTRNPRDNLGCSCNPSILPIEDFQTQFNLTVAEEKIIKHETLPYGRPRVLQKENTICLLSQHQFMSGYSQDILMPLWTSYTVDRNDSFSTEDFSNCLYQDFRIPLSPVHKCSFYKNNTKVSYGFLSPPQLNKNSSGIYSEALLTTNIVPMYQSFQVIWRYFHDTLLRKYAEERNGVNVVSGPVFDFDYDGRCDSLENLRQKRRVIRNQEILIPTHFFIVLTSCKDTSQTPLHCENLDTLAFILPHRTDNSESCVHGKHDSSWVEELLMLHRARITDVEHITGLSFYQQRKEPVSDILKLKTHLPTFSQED
The assay is described as follows: clone comparison; FIG. 15 flow cytometry on HEK cells over-expressing ENPP1. In general terms: In flow cytometry, cells or beads pass a laser one at a time.

The target in assay [2] is T1, human ENPP1, full length, over-expressed on HEK cells (human). The assay is described as follows: flow cytometry (mean fluorescence intensity) on HEK cells over-expressing full length human ENPP1.

No constants are given. Whether binding was seen depends on the method and setting. Some entries that bind do so weakly or less than the wild type.

B1: 12-J-4 ENPP1 monoclonal antibody (antibody, V domains shown)
VH: EVMLVESGGGLVKPGGSLKLSCVASGFTFSSYTMSWVRQTPEKRLEWVATISGGGGNTYYPDSVKGRFTISRDNAKNTLYLQMSSLRSEDTALYYCARRHYGSSPYAMDYWGQGTSVTVSS
VL: DIQMTQTTSSLSASLGDRVTISCRASQDISNYLNWYQQKPDGTVKLLIYHKTRLHSGVPSRFSGSGSGTDYSLTISNLEQEDIATYFCQQGNMLPWTFGGGTKLEIK
notes: The antibody is a recombinant IgG1kappa made in a CHO cell line, from a hybridoma raised against human recombinant ENPP1; Heavy chain about 48 kD, light chain about 24 kD; also called ENPP1 mAb; ENPP1mAb
For B1, the binding entry in assay [1] and in assay [2] was “binds” throughout.
